Measurements from the supplement of paper PMC10849652.
This is one part of the list.

The chains behind the UniProt entries cited, without tags or fusion partners. Where a name states a change or a piece, a line headed by the entry shows the natural chain unless it says otherwise.
UniProt Q9NVV4: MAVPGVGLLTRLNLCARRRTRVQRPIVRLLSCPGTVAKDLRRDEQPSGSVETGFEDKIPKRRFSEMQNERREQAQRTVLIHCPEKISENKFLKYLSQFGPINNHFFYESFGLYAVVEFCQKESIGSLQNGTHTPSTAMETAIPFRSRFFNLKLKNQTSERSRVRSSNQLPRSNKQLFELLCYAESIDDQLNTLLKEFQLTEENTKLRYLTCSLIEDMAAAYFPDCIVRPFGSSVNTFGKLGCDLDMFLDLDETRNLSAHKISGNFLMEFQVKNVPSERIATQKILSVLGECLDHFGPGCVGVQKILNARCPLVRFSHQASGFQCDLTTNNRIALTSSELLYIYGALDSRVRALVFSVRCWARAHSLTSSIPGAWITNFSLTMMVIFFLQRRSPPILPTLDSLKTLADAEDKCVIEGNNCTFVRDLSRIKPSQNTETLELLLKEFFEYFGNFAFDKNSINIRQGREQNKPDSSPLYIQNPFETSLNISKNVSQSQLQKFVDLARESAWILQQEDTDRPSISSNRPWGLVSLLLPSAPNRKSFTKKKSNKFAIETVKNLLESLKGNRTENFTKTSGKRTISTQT
UniProt P00403, whole entry, looked up: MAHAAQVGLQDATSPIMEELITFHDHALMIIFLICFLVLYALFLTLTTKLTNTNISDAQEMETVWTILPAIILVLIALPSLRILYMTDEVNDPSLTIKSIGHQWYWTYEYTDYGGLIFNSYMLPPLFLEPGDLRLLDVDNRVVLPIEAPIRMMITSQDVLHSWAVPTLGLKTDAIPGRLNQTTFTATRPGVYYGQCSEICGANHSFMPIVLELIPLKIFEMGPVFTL
UniProt O94832: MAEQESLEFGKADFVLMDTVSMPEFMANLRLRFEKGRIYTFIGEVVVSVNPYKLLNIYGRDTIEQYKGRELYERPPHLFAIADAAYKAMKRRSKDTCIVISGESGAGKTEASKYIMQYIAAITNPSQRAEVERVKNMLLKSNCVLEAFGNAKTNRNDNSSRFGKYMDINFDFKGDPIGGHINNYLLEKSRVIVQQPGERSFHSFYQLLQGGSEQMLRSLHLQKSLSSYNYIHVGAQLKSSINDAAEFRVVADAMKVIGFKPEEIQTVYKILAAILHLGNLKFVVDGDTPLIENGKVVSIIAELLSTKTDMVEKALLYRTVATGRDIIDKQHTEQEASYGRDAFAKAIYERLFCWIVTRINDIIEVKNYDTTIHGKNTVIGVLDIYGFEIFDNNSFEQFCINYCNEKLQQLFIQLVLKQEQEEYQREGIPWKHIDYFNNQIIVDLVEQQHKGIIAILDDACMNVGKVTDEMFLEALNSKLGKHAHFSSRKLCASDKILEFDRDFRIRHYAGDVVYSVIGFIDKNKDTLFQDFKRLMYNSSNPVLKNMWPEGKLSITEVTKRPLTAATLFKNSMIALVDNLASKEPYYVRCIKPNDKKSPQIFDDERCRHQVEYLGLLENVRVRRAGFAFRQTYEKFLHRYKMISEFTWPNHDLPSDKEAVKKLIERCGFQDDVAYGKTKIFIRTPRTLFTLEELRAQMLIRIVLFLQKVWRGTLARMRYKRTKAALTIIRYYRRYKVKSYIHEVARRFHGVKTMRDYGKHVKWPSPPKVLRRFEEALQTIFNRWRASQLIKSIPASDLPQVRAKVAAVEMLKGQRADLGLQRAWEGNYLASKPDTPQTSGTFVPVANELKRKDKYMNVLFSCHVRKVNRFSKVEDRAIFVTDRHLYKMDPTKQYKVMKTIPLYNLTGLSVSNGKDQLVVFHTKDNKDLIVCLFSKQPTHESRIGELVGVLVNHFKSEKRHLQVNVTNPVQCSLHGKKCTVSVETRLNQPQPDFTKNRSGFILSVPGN
UniProt P14649: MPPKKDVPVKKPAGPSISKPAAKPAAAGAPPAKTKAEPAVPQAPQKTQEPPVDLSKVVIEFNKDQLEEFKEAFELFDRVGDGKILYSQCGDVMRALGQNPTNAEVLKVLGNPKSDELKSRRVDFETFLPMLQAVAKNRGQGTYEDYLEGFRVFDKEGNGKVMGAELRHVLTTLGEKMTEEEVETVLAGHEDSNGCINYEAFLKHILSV
UniProt Q99707: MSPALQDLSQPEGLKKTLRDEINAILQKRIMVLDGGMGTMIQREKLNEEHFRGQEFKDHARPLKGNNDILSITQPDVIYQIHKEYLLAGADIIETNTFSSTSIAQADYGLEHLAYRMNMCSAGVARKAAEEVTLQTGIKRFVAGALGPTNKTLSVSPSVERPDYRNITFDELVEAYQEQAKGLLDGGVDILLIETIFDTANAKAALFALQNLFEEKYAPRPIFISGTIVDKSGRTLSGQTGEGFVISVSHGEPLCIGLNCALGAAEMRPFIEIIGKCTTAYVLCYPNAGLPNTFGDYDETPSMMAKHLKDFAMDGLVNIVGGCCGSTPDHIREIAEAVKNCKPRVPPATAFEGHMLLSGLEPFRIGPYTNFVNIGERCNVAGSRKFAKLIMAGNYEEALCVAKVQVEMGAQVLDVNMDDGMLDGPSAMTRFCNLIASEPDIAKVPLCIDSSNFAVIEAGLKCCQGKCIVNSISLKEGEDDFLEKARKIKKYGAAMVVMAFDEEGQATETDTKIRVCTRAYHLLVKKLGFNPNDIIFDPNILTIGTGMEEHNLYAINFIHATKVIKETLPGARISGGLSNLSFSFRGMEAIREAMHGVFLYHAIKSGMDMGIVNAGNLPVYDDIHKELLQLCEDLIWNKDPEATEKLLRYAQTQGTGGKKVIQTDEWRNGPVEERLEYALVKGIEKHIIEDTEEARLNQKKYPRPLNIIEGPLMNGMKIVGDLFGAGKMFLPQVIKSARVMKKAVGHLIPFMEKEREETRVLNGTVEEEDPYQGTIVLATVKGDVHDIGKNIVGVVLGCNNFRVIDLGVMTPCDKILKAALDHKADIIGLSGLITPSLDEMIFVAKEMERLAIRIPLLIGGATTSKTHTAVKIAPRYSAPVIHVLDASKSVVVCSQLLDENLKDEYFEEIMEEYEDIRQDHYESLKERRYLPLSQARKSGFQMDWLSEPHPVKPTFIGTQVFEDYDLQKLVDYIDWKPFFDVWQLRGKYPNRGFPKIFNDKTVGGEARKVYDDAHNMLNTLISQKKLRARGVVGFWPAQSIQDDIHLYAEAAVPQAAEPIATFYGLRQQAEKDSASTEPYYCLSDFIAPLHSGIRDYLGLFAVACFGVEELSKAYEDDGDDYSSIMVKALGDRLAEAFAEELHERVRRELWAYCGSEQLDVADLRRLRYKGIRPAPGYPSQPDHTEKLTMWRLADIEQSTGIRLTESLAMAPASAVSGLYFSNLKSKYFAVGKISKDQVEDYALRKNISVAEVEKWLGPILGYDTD
UniProt P60660, whole entry, looked up: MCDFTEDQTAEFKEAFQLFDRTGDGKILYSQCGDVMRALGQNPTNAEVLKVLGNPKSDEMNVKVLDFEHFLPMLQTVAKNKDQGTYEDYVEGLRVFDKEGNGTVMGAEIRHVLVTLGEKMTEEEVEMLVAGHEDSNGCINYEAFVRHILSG
UniProt Q13330: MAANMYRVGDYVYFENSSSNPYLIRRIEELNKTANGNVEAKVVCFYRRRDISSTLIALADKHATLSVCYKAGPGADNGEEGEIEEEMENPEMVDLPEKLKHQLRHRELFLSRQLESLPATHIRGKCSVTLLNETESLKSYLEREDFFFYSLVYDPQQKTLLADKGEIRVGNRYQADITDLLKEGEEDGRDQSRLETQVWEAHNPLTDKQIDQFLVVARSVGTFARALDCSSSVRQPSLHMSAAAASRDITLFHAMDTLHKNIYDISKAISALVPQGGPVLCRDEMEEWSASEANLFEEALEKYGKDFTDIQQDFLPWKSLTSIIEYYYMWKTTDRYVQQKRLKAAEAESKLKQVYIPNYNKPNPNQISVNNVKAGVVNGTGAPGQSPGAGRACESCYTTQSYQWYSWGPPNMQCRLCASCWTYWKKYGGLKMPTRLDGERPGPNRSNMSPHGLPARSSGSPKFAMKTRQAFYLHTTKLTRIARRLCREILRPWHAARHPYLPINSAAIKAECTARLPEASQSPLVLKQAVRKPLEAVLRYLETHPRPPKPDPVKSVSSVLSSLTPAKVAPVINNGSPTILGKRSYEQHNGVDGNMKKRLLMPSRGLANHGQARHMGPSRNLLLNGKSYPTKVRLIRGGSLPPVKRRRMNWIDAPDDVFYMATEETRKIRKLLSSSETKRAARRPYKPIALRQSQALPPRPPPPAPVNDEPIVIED
UniProt Q6P444: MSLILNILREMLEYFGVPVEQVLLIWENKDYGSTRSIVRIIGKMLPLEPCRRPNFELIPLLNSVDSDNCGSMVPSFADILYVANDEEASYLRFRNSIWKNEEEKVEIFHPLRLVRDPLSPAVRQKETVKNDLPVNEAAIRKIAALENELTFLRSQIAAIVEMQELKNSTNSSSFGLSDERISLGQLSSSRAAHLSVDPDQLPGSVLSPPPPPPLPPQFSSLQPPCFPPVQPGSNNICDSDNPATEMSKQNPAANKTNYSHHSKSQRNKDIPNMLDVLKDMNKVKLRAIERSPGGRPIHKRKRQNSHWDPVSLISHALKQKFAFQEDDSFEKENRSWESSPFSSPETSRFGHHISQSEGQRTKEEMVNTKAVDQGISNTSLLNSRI
UniProt P35579, whole entry, looked up: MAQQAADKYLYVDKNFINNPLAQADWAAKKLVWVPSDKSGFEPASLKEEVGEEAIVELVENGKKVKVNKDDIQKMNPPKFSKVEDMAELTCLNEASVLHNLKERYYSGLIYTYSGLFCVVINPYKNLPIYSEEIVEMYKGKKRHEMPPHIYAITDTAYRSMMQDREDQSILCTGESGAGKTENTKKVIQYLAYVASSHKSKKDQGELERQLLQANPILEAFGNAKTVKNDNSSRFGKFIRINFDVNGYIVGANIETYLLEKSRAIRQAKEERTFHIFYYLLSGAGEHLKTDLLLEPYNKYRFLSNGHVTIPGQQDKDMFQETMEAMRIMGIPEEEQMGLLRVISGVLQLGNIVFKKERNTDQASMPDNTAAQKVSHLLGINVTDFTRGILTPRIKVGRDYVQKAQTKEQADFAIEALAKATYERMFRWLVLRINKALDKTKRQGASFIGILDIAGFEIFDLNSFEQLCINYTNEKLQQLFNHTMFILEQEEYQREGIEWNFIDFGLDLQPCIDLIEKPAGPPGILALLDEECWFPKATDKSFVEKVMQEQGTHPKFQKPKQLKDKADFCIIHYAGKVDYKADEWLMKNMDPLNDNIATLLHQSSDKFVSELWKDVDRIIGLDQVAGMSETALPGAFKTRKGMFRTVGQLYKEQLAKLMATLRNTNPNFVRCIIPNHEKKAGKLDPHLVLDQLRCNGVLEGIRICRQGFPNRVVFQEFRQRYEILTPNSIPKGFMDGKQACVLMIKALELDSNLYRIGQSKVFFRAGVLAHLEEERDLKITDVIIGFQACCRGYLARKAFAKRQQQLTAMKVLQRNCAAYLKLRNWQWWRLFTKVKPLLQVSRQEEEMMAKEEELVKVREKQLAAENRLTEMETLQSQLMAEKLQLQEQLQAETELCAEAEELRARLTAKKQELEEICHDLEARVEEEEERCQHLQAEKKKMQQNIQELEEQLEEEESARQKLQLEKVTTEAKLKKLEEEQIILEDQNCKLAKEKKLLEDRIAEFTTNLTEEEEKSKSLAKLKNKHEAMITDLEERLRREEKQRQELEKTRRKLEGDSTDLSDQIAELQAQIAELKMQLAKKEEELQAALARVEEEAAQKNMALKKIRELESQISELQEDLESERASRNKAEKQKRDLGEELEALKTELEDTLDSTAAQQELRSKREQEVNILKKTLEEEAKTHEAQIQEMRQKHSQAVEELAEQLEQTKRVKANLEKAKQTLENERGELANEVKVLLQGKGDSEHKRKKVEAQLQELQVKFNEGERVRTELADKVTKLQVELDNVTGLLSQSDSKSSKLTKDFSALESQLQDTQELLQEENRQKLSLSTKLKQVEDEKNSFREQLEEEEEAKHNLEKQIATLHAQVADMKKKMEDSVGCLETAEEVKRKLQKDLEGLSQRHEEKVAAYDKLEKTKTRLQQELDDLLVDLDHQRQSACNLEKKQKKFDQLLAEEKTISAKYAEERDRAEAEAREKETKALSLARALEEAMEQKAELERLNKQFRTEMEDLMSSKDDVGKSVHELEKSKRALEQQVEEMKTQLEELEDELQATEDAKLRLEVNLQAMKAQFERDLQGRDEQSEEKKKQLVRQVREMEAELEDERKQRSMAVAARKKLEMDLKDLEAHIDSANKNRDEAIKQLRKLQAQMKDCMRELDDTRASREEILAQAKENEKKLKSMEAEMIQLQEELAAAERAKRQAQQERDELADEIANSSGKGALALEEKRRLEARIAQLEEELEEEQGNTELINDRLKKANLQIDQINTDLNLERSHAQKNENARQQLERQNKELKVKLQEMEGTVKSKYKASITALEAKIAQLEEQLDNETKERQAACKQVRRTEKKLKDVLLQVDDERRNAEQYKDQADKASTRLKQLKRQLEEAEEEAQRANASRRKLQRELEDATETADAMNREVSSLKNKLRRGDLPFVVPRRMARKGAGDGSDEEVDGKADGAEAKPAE

Columns and labels:
Test in all cases: log2 fold change, soluble protein after heating vs DMSO (PISA); higher = thermal stabilisation; K562 cells, 10 uM, 30 min; active = over 0.2 and 3.5 SD of the protein, either way, in both replicates (recomputed)
[1] = compound: CC[C@@H]1C(=O)N(C)c2cnc(Nc3ccc(C(=O)NC4CCN(C)CC4)cc3OC)nc2N1C1CCCC1
Procedure, shortened: (§1)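 Soluble protein was quantified by TMTpro 16plex LC-MS/MS after channel sums were equalised. It was obtained as the supernatant after 21,000xg for 90 min from pooled aliquots of K562 cells (2×10^6 cells/mL, 10 μM compound, 30 min) heated for 3 min across 48°C-58°C and extracted in PBS with 0.5% NP-40 at 4°C. Thermal stability values are relative to control samples and come from duplicates. They are given as log2 fold changes.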

volasertib = compound: CC[C@@H]1C(=O)N(C)c2cnc(Nc3ccc(C(=O)N[C@H]4CC[C@H](N5CCN(CC6CC6)CC5)CC4)cc3OC)nc2N1C(C)C [volasertib]
Procedure, shortened: as §1

[2] = compound: CC[C@H](C)N1C=C(C2=C(C=C(C=C21)C3=CN=C(C=C3)N4CCNCC4)C(=O)NCC5=C(C=C(NC5=O)C)C)C
Procedure, shortened: as §1

epoxomicin = compound: CC[C@H](C)[C@@H](C(=O)N[C@@H]([C@@H](C)O)C(=O)N[C@@H](CC(C)C)C(=O)[C@]1(CO1)C)NC(=O)[C@H]([C@@H](C)CC)N(C)C(=O)C [epoxomicin]
Procedure, shortened: as §1

[3] = compound: CCn1c(C(=O)N(C2CC2)C2CC2)cc2c3c(ncn3C)c(Nc3cc(C)n(C)n3)nc21
Procedure, shortened: as §1

[4] = compound: CCn1cc(-c2ccnc3[nH]c(-c4cccc(CN(C)C)c4)cc23)c(-c2ccc(NC(=O)N(C)C)cc2)n1
Procedure, shortened: as §1

[5] = compound: CN(C)CC(=O)Nc1ccc2[nH]c(=O)c3ccccc3c2c1
Procedure, shortened: as §1

rosiglitazone = compound: CN(CCOC1=CC=C(C=C1)C[C@H]2C(=O)NC(=O)S2)C3=CC=CC=N3 (racemic) [rosiglitazone]
Procedure, shortened: as §1

[6] = compound: CN1C2=C(C3=C1C(=O)N(N=C3)CC4=CC(=CC=C4)N)SC(=C2)S(=O)C
Procedure, shortened: as §1

[7] = compound: CN1CCC(CNc2ccc3ncc(-c4cccc(OC(F)(F)F)c4)n3n2)CC1
Procedure, shortened: as §1

Measured: log2 fold change

MTRF1L (UniProt Q9UGC7)
inactive: [1] 0.096 | volasertib -0.047 | [2] 0.07 | epoxomicin 0.144 | [3] 0.001 | [4] 0.011 | [5] 0.028 | rosiglitazone 0.068 | [6] 0.006 | [7] 0.02

MTMR2 (UniProt Q13614)
inactive: [1] 0.042 | volasertib -0.021 | [2] -0.046 | epoxomicin 0.026 | [3] -0.096 | [4] -0.016 | [5] 0.028 | rosiglitazone -0.013 | [6] -0.068 | [7] -0.05

MT-CYB (UniProt P00156)
inactive: [1] 0.076 | volasertib -0.185 | [2] -0.031 | epoxomicin -0.381 | [3] -0.01 | [4] -0.112 | [5] 0.139 | rosiglitazone 0.038 | [6] 0.003 | [7] 0.165

MTCH2 (UniProt Q9Y6C9)
inactive: [1] 0.016 | volasertib 0.048 | [2] -0.077 | epoxomicin -0.031 | [3] 0.026 | [4] -0.034 | [5] -0.004 | rosiglitazone 0.019 | [6] -0.06 | [7] 0.067

MTPAP (UniProt Q9NVV4)
inactive: [1] 0.039 | volasertib -0.2 | [2] 0 | epoxomicin 0.021 | [3] 0.006 | [4] 0.061 | [5] -0.067 | rosiglitazone 0.022 | [6] 0.133 | [7] -0.043

MVK (UniProt Q03426)
inactive: [1] -0.002 | volasertib -0.055 | [2] -0.011 | epoxomicin -0.006 | [3] 0.022 | [4] -0.036 | [5] 0.041 | rosiglitazone 0.012 | [6] -0.027 | [7] -0.057

MT-CO2 (UniProt P00403)
inactive: [1] -0.032 | volasertib 0.045 | [2] -0.006 | epoxomicin 0.011 | [3] 0.03 | [4] -0.049 | [5] 0.152 | rosiglitazone 0.02 | [6] -0.115 | [7] 0.103

MVP (UniProt Q14764)
inactive: [1] 1.31

MYO1D (UniProt O94832)
inactive: [1] 0.033 | volasertib -0.198 | [2] -0.033 | epoxomicin -0.196 | [3] -0.005 | [4] 0.079 | [5] -0.019 | rosiglitazone -0.049 | [6] 0.171 | [7] -0.198

MTREX (UniProt P42285)
inactive: [1] 0.016 | volasertib -0.037 | [2] 0.033 | epoxomicin 0.037 | [3] -0.014 | [4] -0.085 | [5] 0.015 | rosiglitazone 0.046 | [6] -0.046 | [7] 0.121

MYL6B (UniProt P14649)
inactive: [1] -0.013 | volasertib -0.053 | [2] -0.032 | epoxomicin 0.015 | [3] 0.024 | [4] -0.021 | [5] -0.001 | rosiglitazone -0.031 | [6] -0.039 | [7] -0.009

MTA2 (UniProt O94776)
inactive: [1] -0.05 | volasertib -0.251 | [2] 0.095 | epoxomicin 0.015 | [3] -0.042 | [4] 0.041 | [5] 0.05 | rosiglitazone 0.021 | [6] 0.07 | [7] -0.054

MTR (UniProt Q99707)
inactive: [1] 0.048 | volasertib -0.147 | [2] 0.023 | epoxomicin -0.026 | [3] -0.05 | [4] -0.06 | [5] 0.049 | rosiglitazone 0.04 | [6] 0.175 | [7] 0.081

MTO1 isoform 6 (UniProt Q9Y2Z2)
inactive: [1] -0.008 | volasertib -0.205 | [2] 0 | epoxomicin -0.104 | [3] 0.028 | [4] -0.117 | [5] 0.048 | [6] -0.012 | [7] 0.013

MYL4 (UniProt P12829)
inactive: [1] 0.035 | volasertib 0.051 | [2] -0.048 | epoxomicin 0.009 | [3] 0.032 | [4] 0 | [5] -0.039 | rosiglitazone -0.003 | [6] -0.014 | [7] -0.016

MUL1 (UniProt Q969V5)
inactive: [1] 0.061 | volasertib 0 | [2] 0.045 | epoxomicin 0.04 | [4] 0.014 | [5] -0.028 | [6] -0.004 | [7] -0.115

MYL6 isoform 2 (UniProt P60660)
inactive: [1] -0.055 | volasertib -0.126 | [2] 0.059 | epoxomicin 0.051 | [3] 0.04 | [4] -0.013 | [5] 0.021 | rosiglitazone -0.01 | [6] -0.025 | [7] -0.003

MTHFD1L (UniProt Q6UB35)
inactive: [1] -0.02 | volasertib -0.06 | [2] 0.043 | epoxomicin 0.01 | [3] -0.002 | [4] -0.071 | [5] 0.034 | rosiglitazone 0.02 | [6] -0.063 | [7] -0.042

MRPS22 (UniProt P82650)
inactive: [1] 0.007 | volasertib -0.05 | [2] 0.125 | epoxomicin 0.004 | [4] -0.068 | [5] 0.004 | [6] 0.084 | [7] 0.103

MTM1 (UniProt Q13496)
inactive: [1] 0.085 | volasertib -0.009 | [2] 0.022 | epoxomicin 0.05 | [3] 0.004 | [4] 0.035 | [5] 0.025 | rosiglitazone 0.037 | [6] -0.053 | [7] -0.01

MRS2 (UniProt Q9HD23)
inactive: [1] 0.033 | volasertib 0.024 | [2] 0.03 | epoxomicin 0.003 | [3] 0.003 | [4] 0.07 | [5] -0.01 | rosiglitazone 0.026 | [6] -0.032 | [7] 0.127

MTX2 (UniProt O75431)
inactive: [1] -0.005 | volasertib -0.044 | [2] 0.023 | epoxomicin -0.023 | [3] -0.022 | [4] -0.05 | [5] 0.012 | rosiglitazone 0.034 | [6] -0.026 | [7] 0.029

MTA1 (UniProt Q13330)
inactive: [1] -0.071 | volasertib -0.096 | [2] 0.081 | epoxomicin -0.003 | [3] -0.108 | [4] -0.037 | [5] 0.127 | rosiglitazone -0.01 | [6] 0.079 | [7] 0.047

MTFR2 (UniProt Q6P444)
inactive: [1] -0.05 | volasertib -0.083 | [2] 0.053 | epoxomicin 0.078 | [3] -0.039 | [5] 0.006 | rosiglitazone 0.164 | [6] 0.06

2 entries picked at random from the list so far, as already listed:
MRS2 (UniProt Q9HD23)
inactive: [1] 0.033 | volasertib 0.024 | [2] 0.03 | epoxomicin 0.003 | [3] 0.003 | [4] 0.07 | [5] -0.01 | rosiglitazone 0.026 | [6] -0.032 | [7] 0.127

MTX2 (UniProt O75431)
inactive: [1] -0.005 | volasertib -0.044 | [2] 0.023 | epoxomicin -0.023 | [3] -0.022 | [4] -0.05 | [5] 0.012 | rosiglitazone 0.034 | [6] -0.026 | [7] 0.029

Continuation:

MRPS7 (UniProt Q9Y2R9)
inactive: [1] 0.035 | volasertib 0.119 | [2] 0.116 | epoxomicin 0.091 | [3] 0.003 | [4] -0.014 | [5] 0.011 | rosiglitazone -0.019 | [6] -0.008 | [7] 0.117

MYH9 (UniProt P35579)
inactive: [1] -0.041 | volasertib -0.067 | [2] 0.021 | epoxomicin 0.043 | [3] -0.021 | [4] -0.048 | [5] 0.02 | rosiglitazone 0.035 | [6] -0.072 | [7] 0.068

MRPS25 (UniProt P82663)
inactive: [1] 0.031 | volasertib -0.057 | [2] 0.145 | epoxomicin -0.126 | [4] -0.295 | [5] -0.056 | [6] 0.074 | [7] 0.036

MSI2 (UniProt Q96DH6)
inactive: [1] 0.163 | volasertib 0.012 | [2] -0.013 | epoxomicin -0.122 | [3] -0.003 | [4] 0.005 | [5] 0.023 | rosiglitazone 0.091 | [6] 0.084 | [7] -0.003

MYH11 isoform 2 (UniProt P35749)
inactive: [1] -0.021 | volasertib -0.045 | [2] 0.042 | epoxomicin 0.061 | [4] 0.046 | [5] 0.019 | [6] -0.077 | [7] -0.018

MRPS27 isoform 2 (UniProt Q92552)
inactive: [1] -0.02 | volasertib -0.041 | [2] 0.132 | epoxomicin 0.052 | [4] -0.046 | [5] 0.019 | [6] 0.047 | [7] -0.001

MRTFB isoform 5 (UniProt Q9ULH7)
inactive: [1] 0.031 | volasertib -0.038 | [2] 0.008 | epoxomicin 0.041 | [3] -0.016 | [4] -0.14 | [5] -0.011 | rosiglitazone 0.045 | [6] -0.094 | [7] -0.023

MUC1, A0A087WWM1
inactive: [1] 0.088 | volasertib 0.054 | [2] 0.018 | epoxomicin 0.023 | [3] 0.027 | [4] -0.082 | [5] 0.035 | rosiglitazone -0.006 | [6] -0.125 | [7] 0.147
